Data: the supplement of paper PMC12819154, “High-throughput peptide-centric local stability assay extends protein–ligand identification to membrane proteins, tissues and bacteria” (Nature Structural & Molecular Biology, 2025)
This is one part of the list. Most values lie at the level of the controls, where differences are scatter.

By UniProt entry, the sequences of proteins in these tests, tags left out. Where a name states a change or a piece, a line headed by the entry shows the natural chain unless it says otherwise.
UniProt Q7L5D6: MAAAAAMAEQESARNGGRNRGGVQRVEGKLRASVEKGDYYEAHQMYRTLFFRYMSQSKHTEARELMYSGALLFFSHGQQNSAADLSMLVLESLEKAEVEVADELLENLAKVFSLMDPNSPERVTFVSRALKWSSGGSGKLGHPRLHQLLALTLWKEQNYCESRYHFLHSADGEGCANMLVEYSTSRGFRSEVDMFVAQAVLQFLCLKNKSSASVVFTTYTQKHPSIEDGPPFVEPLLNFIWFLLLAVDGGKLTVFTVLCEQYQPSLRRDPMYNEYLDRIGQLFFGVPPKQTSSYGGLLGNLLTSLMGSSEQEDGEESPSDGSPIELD
UniProt Q7Z2Z2: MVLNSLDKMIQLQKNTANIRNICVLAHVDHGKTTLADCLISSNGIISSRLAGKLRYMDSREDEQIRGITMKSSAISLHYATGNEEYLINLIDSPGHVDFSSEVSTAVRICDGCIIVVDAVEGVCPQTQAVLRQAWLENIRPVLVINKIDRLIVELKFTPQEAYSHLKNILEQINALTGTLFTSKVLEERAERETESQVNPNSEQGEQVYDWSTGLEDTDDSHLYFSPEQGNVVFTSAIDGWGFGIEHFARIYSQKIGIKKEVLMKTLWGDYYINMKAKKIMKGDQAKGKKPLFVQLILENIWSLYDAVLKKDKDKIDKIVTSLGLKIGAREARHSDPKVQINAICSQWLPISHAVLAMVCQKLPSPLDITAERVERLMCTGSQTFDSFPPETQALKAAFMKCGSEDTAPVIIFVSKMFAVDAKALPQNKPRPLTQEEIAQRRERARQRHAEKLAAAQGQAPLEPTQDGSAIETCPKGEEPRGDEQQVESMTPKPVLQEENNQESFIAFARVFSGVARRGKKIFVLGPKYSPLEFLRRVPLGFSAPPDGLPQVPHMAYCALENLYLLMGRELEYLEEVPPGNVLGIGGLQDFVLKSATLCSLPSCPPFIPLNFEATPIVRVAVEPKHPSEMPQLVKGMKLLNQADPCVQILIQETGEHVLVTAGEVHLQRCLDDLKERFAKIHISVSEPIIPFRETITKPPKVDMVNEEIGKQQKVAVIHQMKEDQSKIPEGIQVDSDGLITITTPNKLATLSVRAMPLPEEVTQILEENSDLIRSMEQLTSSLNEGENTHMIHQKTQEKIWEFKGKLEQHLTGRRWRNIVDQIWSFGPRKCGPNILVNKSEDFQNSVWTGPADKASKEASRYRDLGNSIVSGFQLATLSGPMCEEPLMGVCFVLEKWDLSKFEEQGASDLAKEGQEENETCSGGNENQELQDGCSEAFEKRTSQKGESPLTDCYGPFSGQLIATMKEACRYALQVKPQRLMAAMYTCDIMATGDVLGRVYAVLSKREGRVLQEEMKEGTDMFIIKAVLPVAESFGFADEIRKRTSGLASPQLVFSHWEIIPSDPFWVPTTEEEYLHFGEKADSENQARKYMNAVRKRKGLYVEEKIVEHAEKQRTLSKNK
UniProt Q7L2J0: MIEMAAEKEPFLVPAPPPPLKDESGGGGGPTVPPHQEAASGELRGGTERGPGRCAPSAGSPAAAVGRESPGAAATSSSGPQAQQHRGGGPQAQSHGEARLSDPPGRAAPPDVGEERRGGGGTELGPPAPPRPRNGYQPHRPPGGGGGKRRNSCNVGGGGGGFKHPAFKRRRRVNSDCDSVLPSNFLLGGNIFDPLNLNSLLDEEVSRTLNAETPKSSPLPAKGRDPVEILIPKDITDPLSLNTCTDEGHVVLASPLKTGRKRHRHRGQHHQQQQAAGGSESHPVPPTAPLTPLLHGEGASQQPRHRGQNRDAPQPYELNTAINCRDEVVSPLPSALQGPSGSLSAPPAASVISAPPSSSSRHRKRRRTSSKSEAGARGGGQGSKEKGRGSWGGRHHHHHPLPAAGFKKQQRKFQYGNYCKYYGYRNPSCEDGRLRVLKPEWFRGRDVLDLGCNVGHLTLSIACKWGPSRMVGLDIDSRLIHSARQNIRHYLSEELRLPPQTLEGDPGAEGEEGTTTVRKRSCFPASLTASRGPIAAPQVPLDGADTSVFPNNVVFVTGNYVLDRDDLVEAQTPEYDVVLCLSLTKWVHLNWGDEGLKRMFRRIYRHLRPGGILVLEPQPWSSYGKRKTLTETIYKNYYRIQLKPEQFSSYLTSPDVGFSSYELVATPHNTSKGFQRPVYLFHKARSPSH
UniProt Q7Z6K3: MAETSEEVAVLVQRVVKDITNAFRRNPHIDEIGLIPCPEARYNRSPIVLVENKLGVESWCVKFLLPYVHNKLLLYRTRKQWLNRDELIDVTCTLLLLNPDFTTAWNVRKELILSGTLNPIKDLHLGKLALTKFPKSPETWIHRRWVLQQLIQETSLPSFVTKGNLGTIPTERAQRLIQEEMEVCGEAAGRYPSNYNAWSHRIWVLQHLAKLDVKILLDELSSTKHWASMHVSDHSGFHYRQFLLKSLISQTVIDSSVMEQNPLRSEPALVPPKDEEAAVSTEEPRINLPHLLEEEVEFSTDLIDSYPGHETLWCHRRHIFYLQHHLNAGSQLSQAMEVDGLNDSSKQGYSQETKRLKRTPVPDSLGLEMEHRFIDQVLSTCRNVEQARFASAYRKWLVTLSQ
UniProt Q6ZW49, whole entry: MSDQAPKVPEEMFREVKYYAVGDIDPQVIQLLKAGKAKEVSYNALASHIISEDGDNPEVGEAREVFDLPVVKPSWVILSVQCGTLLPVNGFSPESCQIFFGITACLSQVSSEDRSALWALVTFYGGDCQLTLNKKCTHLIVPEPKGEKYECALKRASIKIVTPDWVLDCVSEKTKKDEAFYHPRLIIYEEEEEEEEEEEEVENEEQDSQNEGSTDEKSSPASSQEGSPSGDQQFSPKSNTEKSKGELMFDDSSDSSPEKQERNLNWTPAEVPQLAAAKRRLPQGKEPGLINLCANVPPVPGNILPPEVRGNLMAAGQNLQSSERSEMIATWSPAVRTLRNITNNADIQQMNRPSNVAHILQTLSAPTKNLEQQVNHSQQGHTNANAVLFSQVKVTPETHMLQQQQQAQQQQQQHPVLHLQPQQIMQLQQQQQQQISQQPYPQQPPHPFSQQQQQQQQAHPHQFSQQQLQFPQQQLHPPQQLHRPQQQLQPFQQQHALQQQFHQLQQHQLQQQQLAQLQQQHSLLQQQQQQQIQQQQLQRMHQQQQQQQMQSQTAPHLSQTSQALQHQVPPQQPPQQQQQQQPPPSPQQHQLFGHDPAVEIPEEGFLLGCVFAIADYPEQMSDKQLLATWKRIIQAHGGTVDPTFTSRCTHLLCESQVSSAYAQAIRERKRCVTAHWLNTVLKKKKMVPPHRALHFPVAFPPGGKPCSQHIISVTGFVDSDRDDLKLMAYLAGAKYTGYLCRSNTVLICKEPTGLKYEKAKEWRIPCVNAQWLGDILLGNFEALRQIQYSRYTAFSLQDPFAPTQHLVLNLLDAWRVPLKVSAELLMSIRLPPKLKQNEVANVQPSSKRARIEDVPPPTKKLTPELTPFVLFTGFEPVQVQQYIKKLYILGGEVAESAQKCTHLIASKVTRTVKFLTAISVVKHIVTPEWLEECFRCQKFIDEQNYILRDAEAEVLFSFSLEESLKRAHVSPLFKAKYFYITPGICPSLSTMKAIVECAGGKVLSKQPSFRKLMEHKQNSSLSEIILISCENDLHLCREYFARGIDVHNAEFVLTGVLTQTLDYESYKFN
UniProt Q7Z628: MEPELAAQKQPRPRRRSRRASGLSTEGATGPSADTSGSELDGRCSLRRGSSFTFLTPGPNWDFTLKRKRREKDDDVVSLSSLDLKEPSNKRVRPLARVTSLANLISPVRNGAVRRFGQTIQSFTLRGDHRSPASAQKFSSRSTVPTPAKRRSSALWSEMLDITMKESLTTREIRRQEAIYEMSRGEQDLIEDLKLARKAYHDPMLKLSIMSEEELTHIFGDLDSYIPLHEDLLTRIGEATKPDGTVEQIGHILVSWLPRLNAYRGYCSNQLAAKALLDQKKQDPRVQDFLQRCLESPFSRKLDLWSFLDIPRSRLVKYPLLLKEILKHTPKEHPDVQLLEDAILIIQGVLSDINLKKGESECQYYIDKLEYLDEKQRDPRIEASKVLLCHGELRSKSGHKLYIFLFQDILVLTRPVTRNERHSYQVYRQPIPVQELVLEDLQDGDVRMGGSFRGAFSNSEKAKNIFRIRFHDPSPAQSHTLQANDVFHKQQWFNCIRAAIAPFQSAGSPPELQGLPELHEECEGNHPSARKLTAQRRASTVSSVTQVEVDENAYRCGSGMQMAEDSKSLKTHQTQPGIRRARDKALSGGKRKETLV
UniProt Q6ZRQ5: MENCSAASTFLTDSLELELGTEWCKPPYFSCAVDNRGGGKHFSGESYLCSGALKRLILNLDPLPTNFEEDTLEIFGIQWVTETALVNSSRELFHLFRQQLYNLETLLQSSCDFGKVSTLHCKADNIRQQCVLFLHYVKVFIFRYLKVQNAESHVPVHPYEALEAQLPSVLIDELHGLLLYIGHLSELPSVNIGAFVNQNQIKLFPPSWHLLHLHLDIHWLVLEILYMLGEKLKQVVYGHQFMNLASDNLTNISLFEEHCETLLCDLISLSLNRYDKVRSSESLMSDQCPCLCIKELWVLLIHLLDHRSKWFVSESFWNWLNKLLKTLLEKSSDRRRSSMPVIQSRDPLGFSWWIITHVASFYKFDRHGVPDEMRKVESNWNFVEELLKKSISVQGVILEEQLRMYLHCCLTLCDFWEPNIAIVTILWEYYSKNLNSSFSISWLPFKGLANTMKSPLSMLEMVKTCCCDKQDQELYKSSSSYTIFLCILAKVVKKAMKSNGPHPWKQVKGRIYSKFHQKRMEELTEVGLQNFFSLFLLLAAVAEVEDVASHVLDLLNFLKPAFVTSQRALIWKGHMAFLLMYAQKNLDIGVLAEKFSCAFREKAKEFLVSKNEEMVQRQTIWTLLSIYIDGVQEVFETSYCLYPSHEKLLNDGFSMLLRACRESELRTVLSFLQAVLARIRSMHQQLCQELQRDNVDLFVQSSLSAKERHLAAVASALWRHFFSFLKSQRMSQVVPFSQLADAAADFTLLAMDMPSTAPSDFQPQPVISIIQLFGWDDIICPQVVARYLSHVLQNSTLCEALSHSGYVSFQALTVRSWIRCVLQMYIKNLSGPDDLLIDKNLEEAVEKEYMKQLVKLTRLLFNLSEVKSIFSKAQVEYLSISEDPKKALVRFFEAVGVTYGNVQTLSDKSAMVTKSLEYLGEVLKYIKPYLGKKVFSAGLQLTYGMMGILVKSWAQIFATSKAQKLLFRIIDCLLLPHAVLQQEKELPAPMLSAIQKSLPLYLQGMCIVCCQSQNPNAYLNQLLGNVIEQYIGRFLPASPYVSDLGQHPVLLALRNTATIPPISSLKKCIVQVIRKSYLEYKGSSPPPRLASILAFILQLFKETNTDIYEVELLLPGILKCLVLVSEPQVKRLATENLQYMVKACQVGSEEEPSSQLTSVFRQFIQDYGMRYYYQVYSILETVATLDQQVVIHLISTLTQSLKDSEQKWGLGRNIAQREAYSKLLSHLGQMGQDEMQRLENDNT
UniProt Q6UXH1: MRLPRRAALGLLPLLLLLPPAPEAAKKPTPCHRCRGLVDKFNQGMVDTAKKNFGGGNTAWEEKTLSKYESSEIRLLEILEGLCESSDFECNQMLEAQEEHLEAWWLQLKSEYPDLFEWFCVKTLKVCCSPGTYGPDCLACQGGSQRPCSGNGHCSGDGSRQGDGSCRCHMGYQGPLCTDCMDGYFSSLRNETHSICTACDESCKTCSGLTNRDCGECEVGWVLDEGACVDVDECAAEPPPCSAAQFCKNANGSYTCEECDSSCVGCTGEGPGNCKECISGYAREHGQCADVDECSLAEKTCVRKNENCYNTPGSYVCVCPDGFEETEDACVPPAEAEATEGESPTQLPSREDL
UniProt Q6ZR52: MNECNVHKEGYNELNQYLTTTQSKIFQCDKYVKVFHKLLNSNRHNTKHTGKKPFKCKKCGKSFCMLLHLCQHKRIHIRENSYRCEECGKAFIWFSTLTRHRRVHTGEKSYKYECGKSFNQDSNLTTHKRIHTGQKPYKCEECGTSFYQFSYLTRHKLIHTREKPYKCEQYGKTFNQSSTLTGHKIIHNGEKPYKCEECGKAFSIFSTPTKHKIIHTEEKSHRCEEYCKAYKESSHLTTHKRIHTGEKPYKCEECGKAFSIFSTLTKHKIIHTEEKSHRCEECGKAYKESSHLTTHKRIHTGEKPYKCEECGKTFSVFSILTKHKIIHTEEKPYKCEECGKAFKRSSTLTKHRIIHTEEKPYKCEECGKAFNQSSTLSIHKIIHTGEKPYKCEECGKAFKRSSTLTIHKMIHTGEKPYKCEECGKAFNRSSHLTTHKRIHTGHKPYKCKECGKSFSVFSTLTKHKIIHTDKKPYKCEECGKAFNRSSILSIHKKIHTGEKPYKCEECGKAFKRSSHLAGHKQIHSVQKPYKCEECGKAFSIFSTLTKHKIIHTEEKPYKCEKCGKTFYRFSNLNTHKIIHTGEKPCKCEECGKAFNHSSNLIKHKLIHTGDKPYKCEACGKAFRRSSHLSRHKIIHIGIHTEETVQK

Each target was assayed with Cc1nc(Nc2ncc(C(=O)Nc3c(C)cccc3Cl)s2)cc(N2CCN(CCO)CC2)n1 [dasatinib] (assay: log2 fold change of tryptic peptide abundance, ligand vs vehicle (limited proteolysis) (log2 ratio); higher = more trypsin-susceptible (destabilized)). Conditions: ligand concentration: 5 uM; sample: K562 cleared lysate.

Row | Target | log2 fold change
1 | UniProt Q7Z7K2 (peptide sequence: EGSHNAQEQMSSSR, peptide start residue: 28) | -0.372
2 | UniProt Q7L5D6 (peptide sequence: GDYYEAHQMYR, peptide start residue: 37) | -0.202
3 | CYB5R4 (peptide sequence: KVLNGMLPK, peptide start residue: 145) (UniProt Q7L1T6) | 0.271
4 | CNTRL (peptide sequence: QSEKEMEELHHNIDDLLQEK, peptide start residue: 1351) (UniProt Q7Z7A1) | -0.901
5 | UniProt Q71UM5 (peptide sequence: DLLHPSLEEEKK, peptide start residue: 6) | 0.0228
6 | UniProt Q6ZS17 (peptide sequence: GLANHVVVGSVSCETK, peptide start residue: 277) | -0.406
7 | UniProt Q6XQN6 (peptide sequence: LTEDPEKQTLPGSK, peptide start residue: 408) | -0.541
8 | UniProt Q7Z2Z2 (peptide sequence: YSPLEFLR, peptide start residue: 529) | -0.186
9 | UniProt Q70Z53 (peptide sequence: GPLPETDEK, peptide start residue: 292) | 0.522
10 | DYM (peptide sequence: SLHQYAAQR, peptide start residue: 476) (UniProt Q7RTS9) | 0.19
11 | MEPCE (peptide sequence: HHHHHPLPAAGFK, peptide start residue: 395) (UniProt Q7L2J0) | -0.457
12 | UniProt Q6ZNW5 (peptide sequence: GPGPDLESLISR, peptide start residue: 261) | 0.262
13 | CENPQ (peptide sequence: KMEDLTNVSSLLNMER, peptide start residue: 130) (UniProt Q7L2Z9) | -0.122
14 | UniProt Q7Z7B0 (peptide sequence: LREEEEKLK, peptide start residue: 275) | -0.231
15 | MIGA2 (peptide sequence: EFAEKLESLLHR, peptide start residue: 232) (UniProt Q7L4E1) | 0.0637
16 | PTAR1 (peptide sequence: LGVESWCVK, peptide start residue: 54) (UniProt Q7Z6K3) | -0.616
17 | UniProt Q6ZWE6 (peptide sequence: KGYLEIRK, peptide start residue: 215) | 0.151
18 | UniProt Q7Z4H8 (peptide sequence: LQLVQLSK, peptide start residue: 323) | 0.106
19 | PAXIP1 (peptide sequence: ARIEDVPPPTKK, peptide start residue: 849) (UniProt Q6ZW49) | -0.534

Quoted from the listing:
Value of UniProt Q6ZNW5 (peptide sequence: GPGPDLESLISR, peptide start residue: 261) under log2 fold change: 0.262
Value of UniProt Q6ZS17 (peptide sequence: GLANHVVVGSVSCETK, peptide start residue: 277) under log2 fold change: -0.406

Carrying on.

Row | Target | log2 fold change
20 | NET1 (peptide sequence: VTSLANLISPVR, peptide start residue: 98) (UniProt Q7Z628) | -0.348
21 | NBEAL2 (peptide sequence: VLDQDTDAIAVHVVR, peptide start residue: 372) (UniProt Q6ZNJ1) | -0.232
22 | UniProt Q6ZRQ5 (peptide sequence: HFSGESYLCSGALKR, peptide start residue: 41) | 0.45
23 | UniProt Q7Z5K2 (peptide sequence: ALQHCEELIQQYNR, peptide start residue: 887) | -0.308
24 | UniProt Q70UQ0 (peptide sequence: GAPAAEPGKR, peptide start residue: 14) | -0.0802
25 | CBLL1 (peptide sequence: HVFCYDCAILHEK, peptide start residue: 127) (UniProt Q75N03) | 0.412
26 | CRELD2 (peptide sequence: NFGGGNTAWEEK, peptide start residue: 52) (UniProt Q6UXH1) | 0.021
27 | ANKS3 (peptide sequence: GQVCQEQELR, peptide start residue: 527) (UniProt Q6ZW76) | 0.242
28 | UniProt Q6ZR52 (peptide sequence: SSHLTTHKR, peptide start residue: 301) | -0.0507
29 | UniProt Q86UL8 (peptide sequence: TTSWLDPR, peptide start residue: 325) | 0.207
30 | VPS13B (peptide sequence: IGVLSLESLHASTR, peptide start residue: 1913) (UniProt Q7Z7G8) | -0.255
31 | LPCAT2 (peptide sequence: EVQTTPSTASNK, peptide start residue: 517) (UniProt Q7L5N7) | -0.369
32 | SETD3 (peptide sequence: EDYFPDLMK, peptide start residue: 76) (UniProt Q86TU7) | -0.317
33 | USP37 (peptide sequence: QLSYSDNQASAK, peptide start residue: 136) (UniProt Q86T82) | -0.32
34 | LARP4 (peptide sequence: GTGLNPNAK, peptide start residue: 12) (UniProt Q71RC2) | 0.235
35 | CDC37L1 (peptide sequence: SSVACKWNLAEAQQK, peptide start residue: 63) (UniProt Q7L3B6) | -0.305
36 | HUWE1 (peptide sequence: RSSLLTEK, peptide start residue: 3445) (UniProt Q7Z6Z7) | -0.346
37 | TBC1D9 (peptide sequence: VLTAYAFR, peptide start residue: 579) (UniProt Q6ZT07) | -0.128
